Values quoted from earlier work, collected in patent publication US7179808B2 (Janssen Pharmaceutica N.V., priority 2002, dated 2007).

Tested on: mice with potassium peroxochromate arthritis
Conditions: cited from earlier work

In the case of `CN[C@@H]1C[C@H]2O[C@@](C)([C@@H]1OC)n1c3ccccc3c3c4c(c5c6ccccc6n2c5c31)C(=O)NC4` [staurosporine], the “inhibition of the arthritis” value (100 nmol) is listed as 85% and the inhibited the arthritis (daily doses of 30 nmol/kg) is listed as 50%.
